From paper doi:10.1101/2021.07.20.453048

Protein sequences, listed by entry. Tags and fused reporters are not part of them.
UniProt Q1MSJ5: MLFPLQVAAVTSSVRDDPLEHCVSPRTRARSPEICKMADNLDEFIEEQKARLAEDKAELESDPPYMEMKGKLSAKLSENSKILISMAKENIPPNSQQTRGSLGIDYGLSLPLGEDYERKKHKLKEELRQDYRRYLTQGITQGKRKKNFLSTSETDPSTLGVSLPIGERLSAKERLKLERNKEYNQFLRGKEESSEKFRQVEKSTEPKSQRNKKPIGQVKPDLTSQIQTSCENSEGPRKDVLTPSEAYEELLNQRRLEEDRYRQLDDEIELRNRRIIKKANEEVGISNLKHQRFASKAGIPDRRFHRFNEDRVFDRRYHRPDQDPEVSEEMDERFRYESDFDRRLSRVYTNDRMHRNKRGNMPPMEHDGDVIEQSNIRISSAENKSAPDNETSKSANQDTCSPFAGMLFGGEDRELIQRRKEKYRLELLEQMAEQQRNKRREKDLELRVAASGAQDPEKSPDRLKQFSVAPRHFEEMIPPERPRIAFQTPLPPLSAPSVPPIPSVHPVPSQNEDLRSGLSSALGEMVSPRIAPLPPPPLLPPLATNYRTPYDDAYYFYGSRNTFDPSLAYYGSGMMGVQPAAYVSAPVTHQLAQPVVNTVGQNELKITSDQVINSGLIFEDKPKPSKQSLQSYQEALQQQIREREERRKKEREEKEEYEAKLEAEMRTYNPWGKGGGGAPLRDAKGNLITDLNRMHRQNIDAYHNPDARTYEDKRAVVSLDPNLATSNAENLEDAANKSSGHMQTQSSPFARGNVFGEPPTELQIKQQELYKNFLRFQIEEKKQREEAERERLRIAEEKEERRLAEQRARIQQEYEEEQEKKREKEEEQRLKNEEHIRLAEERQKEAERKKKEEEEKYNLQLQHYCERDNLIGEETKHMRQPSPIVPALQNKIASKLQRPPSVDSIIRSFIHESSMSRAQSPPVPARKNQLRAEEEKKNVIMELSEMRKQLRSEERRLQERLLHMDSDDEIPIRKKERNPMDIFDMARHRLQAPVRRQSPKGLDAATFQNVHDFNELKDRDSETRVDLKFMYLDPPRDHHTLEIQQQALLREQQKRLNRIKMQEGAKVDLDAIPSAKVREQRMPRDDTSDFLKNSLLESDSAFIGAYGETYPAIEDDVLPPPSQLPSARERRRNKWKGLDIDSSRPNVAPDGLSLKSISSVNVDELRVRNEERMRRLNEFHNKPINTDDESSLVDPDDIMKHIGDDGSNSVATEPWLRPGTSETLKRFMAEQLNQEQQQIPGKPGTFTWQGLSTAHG
UniProt P27816: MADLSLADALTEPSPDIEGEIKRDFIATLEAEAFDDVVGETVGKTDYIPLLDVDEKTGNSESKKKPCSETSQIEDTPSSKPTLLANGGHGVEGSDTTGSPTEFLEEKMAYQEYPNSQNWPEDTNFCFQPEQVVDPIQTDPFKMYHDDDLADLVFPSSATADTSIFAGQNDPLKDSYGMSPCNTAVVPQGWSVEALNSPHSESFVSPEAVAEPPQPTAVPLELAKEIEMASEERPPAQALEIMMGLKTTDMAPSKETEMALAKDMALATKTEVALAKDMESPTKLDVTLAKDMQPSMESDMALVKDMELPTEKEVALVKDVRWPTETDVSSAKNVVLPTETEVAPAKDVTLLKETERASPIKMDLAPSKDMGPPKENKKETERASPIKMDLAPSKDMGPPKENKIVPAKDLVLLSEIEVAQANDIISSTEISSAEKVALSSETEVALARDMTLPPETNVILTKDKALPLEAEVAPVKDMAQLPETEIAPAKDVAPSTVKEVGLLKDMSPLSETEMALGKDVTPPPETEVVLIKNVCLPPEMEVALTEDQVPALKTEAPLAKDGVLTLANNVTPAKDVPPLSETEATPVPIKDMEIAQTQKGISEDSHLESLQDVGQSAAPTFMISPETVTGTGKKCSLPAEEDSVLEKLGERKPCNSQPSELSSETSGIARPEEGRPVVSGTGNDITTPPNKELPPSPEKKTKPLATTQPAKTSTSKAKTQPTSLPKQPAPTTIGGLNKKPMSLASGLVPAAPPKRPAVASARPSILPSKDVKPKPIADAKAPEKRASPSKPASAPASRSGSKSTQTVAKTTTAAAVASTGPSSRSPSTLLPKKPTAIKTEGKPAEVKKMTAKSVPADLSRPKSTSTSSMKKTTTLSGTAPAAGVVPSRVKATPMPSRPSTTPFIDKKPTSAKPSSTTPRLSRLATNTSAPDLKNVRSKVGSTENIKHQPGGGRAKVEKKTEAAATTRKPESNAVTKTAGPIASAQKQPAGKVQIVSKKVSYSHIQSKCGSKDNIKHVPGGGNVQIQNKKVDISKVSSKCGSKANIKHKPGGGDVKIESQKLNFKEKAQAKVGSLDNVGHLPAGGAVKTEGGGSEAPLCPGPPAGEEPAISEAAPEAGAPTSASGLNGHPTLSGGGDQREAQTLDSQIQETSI
UniProt Q8N4C6: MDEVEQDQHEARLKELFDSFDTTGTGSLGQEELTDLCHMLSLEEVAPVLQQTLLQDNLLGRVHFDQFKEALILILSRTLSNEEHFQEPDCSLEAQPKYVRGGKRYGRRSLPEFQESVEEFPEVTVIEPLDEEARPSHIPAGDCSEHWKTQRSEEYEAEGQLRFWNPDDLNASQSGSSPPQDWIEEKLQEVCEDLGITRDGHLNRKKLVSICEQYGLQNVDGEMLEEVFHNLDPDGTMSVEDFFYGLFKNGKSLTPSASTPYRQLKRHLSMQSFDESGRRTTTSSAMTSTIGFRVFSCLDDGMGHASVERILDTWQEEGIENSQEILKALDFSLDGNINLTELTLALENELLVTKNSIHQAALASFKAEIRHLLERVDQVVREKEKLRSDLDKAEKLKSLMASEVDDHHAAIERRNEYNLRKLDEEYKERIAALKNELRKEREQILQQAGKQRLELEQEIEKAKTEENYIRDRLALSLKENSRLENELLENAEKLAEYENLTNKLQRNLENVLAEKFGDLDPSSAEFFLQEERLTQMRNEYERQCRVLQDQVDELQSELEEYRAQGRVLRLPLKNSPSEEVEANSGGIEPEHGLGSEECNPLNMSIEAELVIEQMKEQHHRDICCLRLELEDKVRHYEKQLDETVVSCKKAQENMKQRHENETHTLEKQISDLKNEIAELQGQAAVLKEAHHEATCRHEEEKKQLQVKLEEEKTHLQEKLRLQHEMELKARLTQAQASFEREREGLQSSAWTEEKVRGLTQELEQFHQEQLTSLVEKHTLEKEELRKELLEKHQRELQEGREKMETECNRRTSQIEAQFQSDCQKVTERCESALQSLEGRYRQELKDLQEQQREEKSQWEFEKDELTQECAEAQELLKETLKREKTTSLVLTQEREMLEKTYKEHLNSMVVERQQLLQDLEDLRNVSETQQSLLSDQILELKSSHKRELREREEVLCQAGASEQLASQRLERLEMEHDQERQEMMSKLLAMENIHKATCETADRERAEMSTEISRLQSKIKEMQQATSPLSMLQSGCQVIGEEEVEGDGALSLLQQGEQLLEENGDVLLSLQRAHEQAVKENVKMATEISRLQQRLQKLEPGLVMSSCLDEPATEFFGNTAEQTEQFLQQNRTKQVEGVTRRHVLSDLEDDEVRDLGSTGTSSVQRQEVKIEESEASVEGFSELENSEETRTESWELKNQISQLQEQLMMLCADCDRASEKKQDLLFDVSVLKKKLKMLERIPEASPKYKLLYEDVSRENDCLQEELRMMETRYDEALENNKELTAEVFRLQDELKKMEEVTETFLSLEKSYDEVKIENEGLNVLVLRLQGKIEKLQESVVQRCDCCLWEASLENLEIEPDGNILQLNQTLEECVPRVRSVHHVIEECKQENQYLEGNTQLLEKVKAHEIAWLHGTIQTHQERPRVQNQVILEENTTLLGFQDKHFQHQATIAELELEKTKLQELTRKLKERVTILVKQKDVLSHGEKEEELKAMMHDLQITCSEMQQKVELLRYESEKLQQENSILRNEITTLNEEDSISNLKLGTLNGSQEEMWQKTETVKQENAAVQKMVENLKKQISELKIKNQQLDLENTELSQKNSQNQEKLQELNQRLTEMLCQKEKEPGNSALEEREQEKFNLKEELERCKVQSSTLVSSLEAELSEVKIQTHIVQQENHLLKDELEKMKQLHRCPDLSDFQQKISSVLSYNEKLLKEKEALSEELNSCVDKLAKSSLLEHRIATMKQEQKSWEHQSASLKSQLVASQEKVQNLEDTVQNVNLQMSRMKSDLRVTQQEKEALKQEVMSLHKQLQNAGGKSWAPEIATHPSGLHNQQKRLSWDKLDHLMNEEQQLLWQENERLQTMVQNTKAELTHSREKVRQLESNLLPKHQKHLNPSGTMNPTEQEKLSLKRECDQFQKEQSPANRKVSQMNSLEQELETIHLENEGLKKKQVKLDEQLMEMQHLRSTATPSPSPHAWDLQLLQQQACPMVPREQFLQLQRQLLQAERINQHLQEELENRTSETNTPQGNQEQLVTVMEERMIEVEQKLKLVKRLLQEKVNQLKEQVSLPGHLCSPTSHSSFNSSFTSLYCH
UniProt Q8IX90: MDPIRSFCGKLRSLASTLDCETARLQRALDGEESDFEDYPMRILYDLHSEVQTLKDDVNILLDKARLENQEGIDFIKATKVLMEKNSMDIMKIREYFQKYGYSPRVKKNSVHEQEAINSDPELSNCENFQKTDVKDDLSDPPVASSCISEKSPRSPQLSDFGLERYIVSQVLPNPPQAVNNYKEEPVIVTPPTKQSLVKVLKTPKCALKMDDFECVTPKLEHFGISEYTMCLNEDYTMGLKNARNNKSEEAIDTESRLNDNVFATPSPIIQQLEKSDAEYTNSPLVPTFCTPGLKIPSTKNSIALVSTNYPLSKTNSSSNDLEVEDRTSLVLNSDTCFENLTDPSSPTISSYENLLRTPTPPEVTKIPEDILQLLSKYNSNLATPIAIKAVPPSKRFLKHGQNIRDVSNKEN

T1: V5-BirA(R118G)-ENKD1 (human) (UniProt Q9H0I2)
T1 sequence: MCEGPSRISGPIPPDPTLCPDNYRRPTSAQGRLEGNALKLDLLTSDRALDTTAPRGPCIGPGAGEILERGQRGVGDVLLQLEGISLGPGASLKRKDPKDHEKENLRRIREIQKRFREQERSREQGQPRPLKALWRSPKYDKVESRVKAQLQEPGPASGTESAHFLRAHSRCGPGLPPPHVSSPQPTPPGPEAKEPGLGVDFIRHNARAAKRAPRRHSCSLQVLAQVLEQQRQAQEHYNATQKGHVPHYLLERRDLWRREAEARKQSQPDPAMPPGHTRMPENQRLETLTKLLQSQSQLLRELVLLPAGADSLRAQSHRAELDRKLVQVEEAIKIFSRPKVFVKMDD

B1: CEP162 (protein, UniProt Q5TB80 1-1403)
chain: MANCSQEELDEEFEQFMKELSDDSFENSDKTARQSKKEMKKKDTVPWWITEDDFKDDGLLGTNVSYLKTKKTSQPVMEIEEESAEKIQFLKSSGTSLLSTDSLETNELVVSELNHSSLGVGLDTLEEQEEKEQFFARLEKGLTSSIDYSRLNKELDSNDSTHFKALHSNQANAELTDDEHENESKHEELAENYSDDFEDEYVGAPLTTKDEEMPSKENSKSEKISVPKQEEEKTGMLANVVLLDSLDSVAEVNLDEQDKITPKPRCLPEMTENEMTGTGVSYGQSSSDVEALHQAYCHIAHSLGDEDKQKIESNTVEDIKSSVKGHPQENEENSKNISTMESDLPTVEELMKPIRIDSFGISGFDLQPVSSEKVAERKETEFFSSLPLKMNPNILSQDSQHVNLFFDKNDENVILQKTTNESMENSCPQVTEVTATEEHVDKMYLNILRKKITVNSSSLSQDDKINKTYRSQLSSEEEGAVMGKQVPYKKARSAPPLLKRKPQSGLYASVRSSGYGKPSSPLKMFSTLEKKTSEDIIKSKNLRSISTSNQPRKKEILSGTKLIKPAALDKPAHKTESCLSTRKKSENPTETDSCIQFQTDSLGYCGENKEKKLLMFKRVQEAEDKWRGAQALIEQIKATFSEKEKELENKLEELKKQQEKELFKLNQDNYILQAKLSSFEETNKKQRWLHFGEAADPVTGEKLKQIQKEIQEQETLLQGYQQENERLYNQVKDLQEQNKKNEERMFKENQSLFSEVASLKEQMHKSRFLSQVVEDSEPTRNQNFTDLLAELRMAQKEKDSLLEDIKRLKQDKQALEVDFEKMKKERDQAKDQIAYVTGEKLYEIKILEETHKQEISRLQKRLQWYAENQELLDKDALRLREANEEIEKLKLEIEKLKAESGNPSIRQKIRLKDKAADAKKIQDLERQVKEMEGILKRRYPNSLPALILAASAAGDTVDKNTVEFMEKRIKKLEADLEGKDEDAKKSLRTMEQQFQKMKIQYEQRLEQQEQLLACKLNQHDSPRIKALEKELDDIKEAHQITVRNLEAEIDVLKHQNAELDVKKNDKDDEDFQSIEFQVEQAHAKAKLVRLNEELAAKKREIQDLSKTVERLQKDRRMMLSNQNSKGREEMSAKRAKKDVLHSSKGNANSFPGTLDSKLYQPHTFTDSHVSEVLQENYRLKNELEGLISEKNELKMKSEAVMNQFENSMRRVKEDTAAHIASLKASHQREIEKLLCQNAVENSSSKVAELNRKIATQEVLIRHFQSQVNELQSKQESLVVSEVREEILQKEITKLLEELREAKENHTPEMKHFVGLEKKIKQMEMRHAQREQELQQIIQQTHQVVETEQNKEVEKWKRLAQLKNRELEKFRTELDSILDVLRELHRQGVVVPVAFADEMNAPEY
B2: CKAP2L (protein, UniProt Q8IYA6 1-745)
chain: MVGPGPTAAAAVEERQRKLQEYLAAKGKLKSQNTKPYLKSKNNCQNQPPSKSTIRPKNDVTNHVVLPVKPKRSISIKLQPRPPNTAGSQKPKLEPPKLLGKRLTSECVSSNPYSKPSSKSFQQCEAGSSTTGELSRKPVGSLNIEQLKTTKQQLTDQGNGKCIDFMNNIHVENESLDNFLKETNKENLLDILTEPERKPDPKLYTRSKPKTDSYNQTKNSLVPKQALGKSSVNSAVLKDRVNKQFVGETQSRTFPVKSQQLSRGADLARPGVKPSRTVPSHFIRTLSKVQSSKKPVVKNIKDIKVNRSQYERPNETKIRSYPVTEQRVKHTKPRTYPSLLQGEYNNRHPNIKQDQKSSQVCIPQTSCVLQKSKAISQRPNLTVGRFNSAIPSTPSIRPNGTSGNKHNNNGFQQKAQTLDSKLKKAVPQNHFLNKTAPKTQADVTTVNGTQTNPNIKKKATAEDRRKQLEEWQKSKGKTYKRPPMELKTKRKVIKEMNISFWKSIEKEEEEKKAQLELSSKINNTLTECLNLIEGGVPSNEILNILSSIPEAEKFAKFWICKAKLLASKGTFDVIGLYEEAIKNGATPIQELRKVVLNILQDSNRTTEGITSDSLVAETSITSVEELAKKMESVKSCLSPKEREQVTATPRIAKAEQHNYPGIKLQIGPIPRINGMPEVQDMKFITPVRRSSRIERAVSRYPEMLQEHDLVVASLDELLEVEETKCFIFRRNEALPVTLGFQTPES

These molecules were tested against T1, V5-BirA(R118G)-ENKD1 (human) (assay: proximity labelling).

binding, binds:
CSPP1 (from UniProt Q1MSJ5 1-1256), MAP4 (from UniProt P27816 1-1152), NIN (from UniProt Q8N4C6 1-2090), SKA3 (from UniProt Q8IX90 1-412)

Target: T1, V5-BirA(R118G)-ENKD1 (human)
Test: proximity labelling
Remark: another data set of the same source

binding, binds:
B1, B2

Results are given in words; binding and its absence hold for the method and conditions named. In cells and extracts the contact can be indirect. These calls come from enrichment with a bait or labelling near it, and not all partners need be listed. Tags and fused reporters may be left off the sequences shown.
